Results published in PMC2848619, “The Combinatorial PP1-Binding Consensus Motif (R/K)x (0,1)V/IxFxx(R/K)x(R/K) Is a New Apoptotic Signature” (PLoS ONE, 2010).
These are yes or no findings as the source states them, for the method shown. Binding calls can cover weak binding; strength is not graded here.

By UniProt entry, the sequences of proteins in these tests, tags left out. Where a name states a change or a piece, a line headed by the entry shows the natural chain unless it says otherwise.
UniProt O14727: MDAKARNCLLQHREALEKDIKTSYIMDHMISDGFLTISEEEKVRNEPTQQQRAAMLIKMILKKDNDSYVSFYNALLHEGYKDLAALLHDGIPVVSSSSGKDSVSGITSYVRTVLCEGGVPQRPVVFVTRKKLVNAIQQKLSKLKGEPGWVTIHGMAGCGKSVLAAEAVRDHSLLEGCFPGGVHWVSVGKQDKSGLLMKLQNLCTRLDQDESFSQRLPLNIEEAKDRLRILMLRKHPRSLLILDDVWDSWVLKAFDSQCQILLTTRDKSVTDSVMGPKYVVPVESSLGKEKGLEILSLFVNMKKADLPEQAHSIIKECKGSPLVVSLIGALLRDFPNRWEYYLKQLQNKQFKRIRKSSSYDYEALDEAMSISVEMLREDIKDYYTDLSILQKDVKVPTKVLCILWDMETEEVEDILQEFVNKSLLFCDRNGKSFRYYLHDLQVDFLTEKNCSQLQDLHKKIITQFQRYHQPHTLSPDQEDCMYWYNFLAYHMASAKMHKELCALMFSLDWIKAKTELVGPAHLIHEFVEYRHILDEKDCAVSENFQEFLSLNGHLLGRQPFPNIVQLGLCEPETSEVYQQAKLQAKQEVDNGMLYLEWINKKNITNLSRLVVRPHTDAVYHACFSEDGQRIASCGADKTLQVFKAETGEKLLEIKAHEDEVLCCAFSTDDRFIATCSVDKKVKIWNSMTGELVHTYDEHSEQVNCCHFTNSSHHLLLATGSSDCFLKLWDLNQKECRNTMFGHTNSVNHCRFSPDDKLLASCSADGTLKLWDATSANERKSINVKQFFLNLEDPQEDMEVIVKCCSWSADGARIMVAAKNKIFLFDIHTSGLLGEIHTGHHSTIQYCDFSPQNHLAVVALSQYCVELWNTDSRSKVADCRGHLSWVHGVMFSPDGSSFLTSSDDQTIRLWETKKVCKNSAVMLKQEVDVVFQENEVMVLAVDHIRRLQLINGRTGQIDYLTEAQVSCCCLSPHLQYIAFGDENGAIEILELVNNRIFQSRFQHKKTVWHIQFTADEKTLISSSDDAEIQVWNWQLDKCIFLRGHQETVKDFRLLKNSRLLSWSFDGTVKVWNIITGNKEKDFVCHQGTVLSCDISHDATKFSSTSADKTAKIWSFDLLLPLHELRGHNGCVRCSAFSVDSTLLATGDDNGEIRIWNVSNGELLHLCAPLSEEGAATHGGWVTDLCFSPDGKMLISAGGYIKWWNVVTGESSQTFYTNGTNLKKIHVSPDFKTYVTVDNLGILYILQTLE

Target: T1, APAF-1_(122–131), within cellulose-bound dodecapeptides of APAF-1 (human) (UniProt O14727)
T1 sequence (peptide): RPVVFVTRKK
Assay: peptide or protein array; overlapping dodecapeptides of APAF-1 119-141 spot-synthesised on a cellulose membrane, blocked with SuperBlock, incubated with purified PP1c, detected with anti-PP1c antibody, peroxidase-conjugated secondary antibody and ECL; both purified

binding: binds
Substance: purified PP1c (enzyme)
